From article doi:10.1101/847996
Results are given in words; binding and its absence hold for the method and conditions named. Binding seen in cells or lysates may run through a third protein. Here binding means that the protein was enriched with, or labelled near, the bait; the list need not be complete. Where a sequence is shown, tags or fusion partners need not be part of it.

Chains of the proteins cited; added tags and fusions are not shown.
UniProt Q7Z6Z7: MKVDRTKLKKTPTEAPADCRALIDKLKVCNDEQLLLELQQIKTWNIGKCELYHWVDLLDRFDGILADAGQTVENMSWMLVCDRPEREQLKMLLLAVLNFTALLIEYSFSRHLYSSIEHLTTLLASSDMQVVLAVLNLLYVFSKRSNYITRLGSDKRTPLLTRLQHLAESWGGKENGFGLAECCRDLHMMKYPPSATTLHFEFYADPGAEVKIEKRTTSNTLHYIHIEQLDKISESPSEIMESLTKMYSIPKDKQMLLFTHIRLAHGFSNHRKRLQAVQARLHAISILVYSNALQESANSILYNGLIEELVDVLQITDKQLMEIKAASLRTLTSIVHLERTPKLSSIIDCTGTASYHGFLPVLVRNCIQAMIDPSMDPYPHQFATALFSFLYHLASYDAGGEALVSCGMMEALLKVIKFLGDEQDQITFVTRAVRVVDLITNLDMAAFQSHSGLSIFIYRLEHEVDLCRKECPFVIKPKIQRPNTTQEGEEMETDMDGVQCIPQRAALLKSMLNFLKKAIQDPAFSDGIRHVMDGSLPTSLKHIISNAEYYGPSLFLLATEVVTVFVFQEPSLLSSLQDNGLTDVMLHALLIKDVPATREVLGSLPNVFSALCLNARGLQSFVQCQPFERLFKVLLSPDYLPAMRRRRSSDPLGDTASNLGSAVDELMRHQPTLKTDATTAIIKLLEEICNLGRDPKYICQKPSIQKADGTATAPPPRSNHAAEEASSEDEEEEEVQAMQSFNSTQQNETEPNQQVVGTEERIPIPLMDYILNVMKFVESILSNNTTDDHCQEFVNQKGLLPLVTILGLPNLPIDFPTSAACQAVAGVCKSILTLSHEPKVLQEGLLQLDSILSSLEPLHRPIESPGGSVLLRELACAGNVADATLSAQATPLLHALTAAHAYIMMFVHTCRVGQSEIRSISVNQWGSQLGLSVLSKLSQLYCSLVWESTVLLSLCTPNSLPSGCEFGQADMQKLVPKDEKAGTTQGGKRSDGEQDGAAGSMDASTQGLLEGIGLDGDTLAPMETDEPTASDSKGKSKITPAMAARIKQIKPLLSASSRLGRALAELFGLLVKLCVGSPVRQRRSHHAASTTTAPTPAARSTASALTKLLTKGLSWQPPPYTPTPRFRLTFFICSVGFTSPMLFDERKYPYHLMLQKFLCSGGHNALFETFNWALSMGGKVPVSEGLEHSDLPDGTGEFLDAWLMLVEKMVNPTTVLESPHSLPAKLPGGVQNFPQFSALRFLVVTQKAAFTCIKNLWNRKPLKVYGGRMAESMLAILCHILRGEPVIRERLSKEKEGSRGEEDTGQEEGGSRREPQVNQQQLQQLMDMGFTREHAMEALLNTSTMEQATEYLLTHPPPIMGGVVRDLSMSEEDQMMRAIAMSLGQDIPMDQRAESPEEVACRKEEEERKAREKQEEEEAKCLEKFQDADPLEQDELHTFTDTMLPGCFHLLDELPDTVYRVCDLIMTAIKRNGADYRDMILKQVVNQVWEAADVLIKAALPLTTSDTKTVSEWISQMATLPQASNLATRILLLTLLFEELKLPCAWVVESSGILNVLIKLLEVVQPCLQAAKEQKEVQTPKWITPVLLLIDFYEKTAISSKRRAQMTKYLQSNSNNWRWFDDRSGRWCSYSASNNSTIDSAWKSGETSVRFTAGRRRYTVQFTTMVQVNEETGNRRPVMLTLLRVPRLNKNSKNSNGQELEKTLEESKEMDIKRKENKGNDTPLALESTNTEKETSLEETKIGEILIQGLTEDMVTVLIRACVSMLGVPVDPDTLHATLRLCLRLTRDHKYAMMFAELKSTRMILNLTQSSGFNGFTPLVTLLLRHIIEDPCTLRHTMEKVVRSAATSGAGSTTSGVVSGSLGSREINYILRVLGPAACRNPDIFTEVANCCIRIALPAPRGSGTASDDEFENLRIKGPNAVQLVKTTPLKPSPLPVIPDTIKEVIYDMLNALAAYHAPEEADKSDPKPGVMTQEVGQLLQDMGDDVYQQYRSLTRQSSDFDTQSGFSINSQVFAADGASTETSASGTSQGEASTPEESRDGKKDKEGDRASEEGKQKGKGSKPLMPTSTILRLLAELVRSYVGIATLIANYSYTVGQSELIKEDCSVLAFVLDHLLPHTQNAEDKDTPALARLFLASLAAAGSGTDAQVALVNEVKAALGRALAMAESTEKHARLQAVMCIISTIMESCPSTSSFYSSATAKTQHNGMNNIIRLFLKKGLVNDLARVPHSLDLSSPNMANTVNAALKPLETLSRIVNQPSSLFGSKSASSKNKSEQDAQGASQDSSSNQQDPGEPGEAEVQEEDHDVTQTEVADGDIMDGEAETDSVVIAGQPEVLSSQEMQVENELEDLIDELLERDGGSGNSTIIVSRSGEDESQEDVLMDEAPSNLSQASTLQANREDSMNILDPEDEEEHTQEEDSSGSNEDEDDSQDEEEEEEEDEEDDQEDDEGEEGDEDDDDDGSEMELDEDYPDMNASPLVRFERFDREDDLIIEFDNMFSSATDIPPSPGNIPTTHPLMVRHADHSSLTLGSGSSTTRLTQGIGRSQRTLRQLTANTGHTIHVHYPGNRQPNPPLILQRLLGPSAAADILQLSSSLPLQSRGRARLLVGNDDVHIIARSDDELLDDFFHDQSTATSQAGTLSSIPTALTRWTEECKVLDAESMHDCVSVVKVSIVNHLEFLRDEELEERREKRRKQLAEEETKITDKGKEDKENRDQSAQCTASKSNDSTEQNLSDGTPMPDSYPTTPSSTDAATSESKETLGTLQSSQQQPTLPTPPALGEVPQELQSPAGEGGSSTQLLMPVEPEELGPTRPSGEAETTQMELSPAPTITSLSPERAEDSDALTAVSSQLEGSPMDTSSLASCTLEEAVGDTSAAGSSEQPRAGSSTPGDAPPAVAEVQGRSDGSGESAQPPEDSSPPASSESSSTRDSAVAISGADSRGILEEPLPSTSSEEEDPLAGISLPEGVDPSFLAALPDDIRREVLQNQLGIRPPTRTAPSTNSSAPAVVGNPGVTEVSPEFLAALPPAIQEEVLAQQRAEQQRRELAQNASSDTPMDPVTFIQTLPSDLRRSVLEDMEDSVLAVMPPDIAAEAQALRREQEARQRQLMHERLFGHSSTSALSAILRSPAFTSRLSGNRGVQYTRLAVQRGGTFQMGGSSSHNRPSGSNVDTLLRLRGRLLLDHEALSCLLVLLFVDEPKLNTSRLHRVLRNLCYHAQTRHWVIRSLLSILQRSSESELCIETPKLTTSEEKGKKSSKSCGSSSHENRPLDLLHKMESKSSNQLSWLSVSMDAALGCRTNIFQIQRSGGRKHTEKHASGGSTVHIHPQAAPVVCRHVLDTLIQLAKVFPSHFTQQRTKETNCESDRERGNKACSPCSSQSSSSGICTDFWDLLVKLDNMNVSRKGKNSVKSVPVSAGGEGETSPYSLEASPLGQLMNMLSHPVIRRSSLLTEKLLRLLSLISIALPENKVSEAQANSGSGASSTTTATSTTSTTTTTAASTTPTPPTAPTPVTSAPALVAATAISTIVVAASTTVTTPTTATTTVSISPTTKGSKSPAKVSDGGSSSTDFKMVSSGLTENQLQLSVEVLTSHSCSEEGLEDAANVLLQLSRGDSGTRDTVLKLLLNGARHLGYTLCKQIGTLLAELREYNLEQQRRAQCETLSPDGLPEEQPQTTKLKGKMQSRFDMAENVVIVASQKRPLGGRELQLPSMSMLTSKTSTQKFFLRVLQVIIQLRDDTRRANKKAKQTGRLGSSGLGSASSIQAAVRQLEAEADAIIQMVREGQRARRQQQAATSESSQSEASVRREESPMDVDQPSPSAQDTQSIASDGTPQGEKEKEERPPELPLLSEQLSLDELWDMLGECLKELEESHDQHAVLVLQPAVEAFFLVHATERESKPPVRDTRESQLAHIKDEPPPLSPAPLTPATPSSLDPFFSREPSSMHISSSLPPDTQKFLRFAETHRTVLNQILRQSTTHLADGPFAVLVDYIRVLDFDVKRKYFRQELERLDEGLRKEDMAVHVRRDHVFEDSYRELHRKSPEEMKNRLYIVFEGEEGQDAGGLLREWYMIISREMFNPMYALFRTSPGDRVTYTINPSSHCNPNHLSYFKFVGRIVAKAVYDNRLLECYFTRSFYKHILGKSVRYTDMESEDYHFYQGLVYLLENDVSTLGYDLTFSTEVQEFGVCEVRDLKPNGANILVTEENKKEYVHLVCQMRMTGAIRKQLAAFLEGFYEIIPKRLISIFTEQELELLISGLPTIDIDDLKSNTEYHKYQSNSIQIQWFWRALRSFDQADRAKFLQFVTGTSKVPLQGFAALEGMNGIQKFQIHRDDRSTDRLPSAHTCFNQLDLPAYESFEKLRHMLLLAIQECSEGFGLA

Biological target: T1, 3xFLAG-tagged C16orf72 (human) (UniProt Q14CZ0)
T1 sequence: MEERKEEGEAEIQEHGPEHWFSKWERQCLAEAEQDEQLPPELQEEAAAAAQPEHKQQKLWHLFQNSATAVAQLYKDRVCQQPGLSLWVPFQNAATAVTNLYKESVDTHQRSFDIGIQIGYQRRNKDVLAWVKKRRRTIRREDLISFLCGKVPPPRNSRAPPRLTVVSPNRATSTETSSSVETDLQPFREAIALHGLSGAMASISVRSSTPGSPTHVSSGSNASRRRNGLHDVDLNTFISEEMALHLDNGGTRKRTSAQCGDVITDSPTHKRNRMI
Assay: affinity purification with mass spectrometry

“Hect ubiquitin E3 ligase HUWE1 (from UniProt Q7Z6Z7 1-4374) (enzyme)” was tested, and the binding was “binds”.
